Some results were stated once for a whole list of compounds, not compound by compound. For at least one compound, name, drawing or mass did not settle the structure.
Legend:
MRSA BAA-1707 biofilms = test: Calgary Biofilm Device assay (MBC/MBEC), MRSA BAA-1707; format: cell-based, Staphylococcus aureus
Method: The lid of the Calgary device was then removed, washed and transferred to another 96-well plate containing 2-fold serial dilutions of the test compounds (the “challenge plate”). The total volume of media with compound in each well in the challenge plate is 150 μL. […] The lid was then removed from the challenge plate and MBC/MBEC values were determined using different final assays. […] The MBC values were determined as the concentration giving a lack of visible bacterial growth (i.e., turbidity). […] In select experiments, pegs from the Calgary device were removed from lead biofilm eradicators after final incubation, sonicated for 30 minutes in PBS and plated out to determine biofilm cell killing of lead biofilm-eradicating agents (i.e., colony forming unit per milliliter, CFU/mL).
Using a Calgary Biofilm Device, bacterial biofilms are established on pegs suspended to the bottom of a 96-well plate lid. Following biofilm establishment on lid pegs, lids are then transferred to new 96-well plates containing serial dilutions of test compound and allowed to incubate. […] Using the Calgary Biofilm Device, both minimum biofilm eradication concentrations and minimum bactericidal concentrations (MBC) for planktonic bacterial can be determined using one assay from a single bacterial culture (FIG. 3A).

[1] = tested on: methicillin-resistant Staphylococcus aureus MRSA-2 (clinical isolate); test: MIC broth microdilution, MRSA-2; format: cell-based; conditions: MRSA-2 and MRSA BAA-1707
Method: The minimum inhibitory concentration (MIC) for each tested compound was determined by the broth microdilution method as recommended by the Clinical and Laboratory Standards Institute (CLSI). In a 96-well plate, eleven two-fold serial dilutions of each compound were made in a final volume of 100 μL Luria Broth. Each well was inoculated with ˜10^5 bacterial cells at the initial time of incubation, prepared from a fresh log phase culture (OD600 of 0.5 to 1.0 depending on bacterial strain). The MIC was defined as the lowest concentration of compound that prevented bacterial growth after incubating 16 to 18 hours at 37° C. (MIC values were supported by spectrophotometric readings at OD600). DMSO served as our vehicle and negative control in each microdilution MIC assay. DMSO was serially diluted with a top concentration of 1% v/v.
The minimum inhibitory concentration (MIC) for each compound was determined by the broth microdilution method as recommended by the Clinical and Laboratory Standards Institute (CLSI).^6 In a 96-well plate, eleven two-fold serial dilutions of each compound were made in a final volume of 100 μL Luria Broth. Each well was inoculated with ˜10^5 bacterial cells at the initial time of incubation, prepared from a fresh log phase culture (OD600 of 0.5 to 1.0 depending on bacterial strain). […]

Structure (SMILES)	minimum biofilm eradication concentration (MBEC), MRSA BAA-1707 biofilms (MRSA BAA-1707 biofilms)	MBC against planktonic cells (MRSA BAA-1707 biofilms; MRSA BAA-1707, same CBD assays)	MIC against two MRSA strains [1]
CCCCCCCCCCCC[N+](C)(C)Cc1ccccc1.[Cl-] [BAC-12, reference compound]	> 1,000 μM	15.6 to 125 µM	
CCCCCCCCCCCC[N+](C)(C)CC[N+](C)(C)CC[N+](C)(C)CCCCCCCCCCCC [QAC-10, reference compound]			3.13 to 4.69 µM

From patent publication US11419335B2, “N-arylated analogues and uses thereof” (University of Florida Research Foundation, Incorporated, priority 2016, dated 2022)
